Some of the results follow.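 Rule for the calls: active = dose-dependent thermal stabilisation significant by F-test of dose-response against flat model at 10% FDR; inactive = not significant.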

The chains behind the UniProt entries cited, without tags or fusion partners. Where a name states a change or a piece, a line headed by the entry shows the natural chain unless it says otherwise.
UniProt Q86X76: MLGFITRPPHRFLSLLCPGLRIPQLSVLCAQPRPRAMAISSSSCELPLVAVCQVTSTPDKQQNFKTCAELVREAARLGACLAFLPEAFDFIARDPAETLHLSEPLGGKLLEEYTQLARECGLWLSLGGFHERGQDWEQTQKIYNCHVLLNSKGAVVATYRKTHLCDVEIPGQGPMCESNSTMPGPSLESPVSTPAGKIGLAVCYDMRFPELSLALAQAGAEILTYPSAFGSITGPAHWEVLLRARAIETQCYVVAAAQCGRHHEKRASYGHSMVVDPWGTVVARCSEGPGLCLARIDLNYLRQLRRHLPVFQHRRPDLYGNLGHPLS
UniProt P35240: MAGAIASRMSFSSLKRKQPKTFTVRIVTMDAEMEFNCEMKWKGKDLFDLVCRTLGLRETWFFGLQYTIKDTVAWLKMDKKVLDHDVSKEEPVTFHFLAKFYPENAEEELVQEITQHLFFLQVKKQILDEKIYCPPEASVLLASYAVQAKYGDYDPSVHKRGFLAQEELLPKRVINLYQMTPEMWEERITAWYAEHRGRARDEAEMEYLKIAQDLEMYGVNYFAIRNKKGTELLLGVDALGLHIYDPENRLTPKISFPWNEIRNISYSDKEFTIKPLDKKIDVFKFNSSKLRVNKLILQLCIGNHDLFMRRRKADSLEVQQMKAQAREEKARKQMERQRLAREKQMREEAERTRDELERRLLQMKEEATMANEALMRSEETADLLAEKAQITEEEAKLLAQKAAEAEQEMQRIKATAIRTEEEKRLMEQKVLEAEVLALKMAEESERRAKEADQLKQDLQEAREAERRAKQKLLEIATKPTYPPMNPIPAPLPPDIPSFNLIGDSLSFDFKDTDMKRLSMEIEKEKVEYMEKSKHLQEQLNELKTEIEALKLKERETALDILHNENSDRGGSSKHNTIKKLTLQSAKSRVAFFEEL
UniProt P49902: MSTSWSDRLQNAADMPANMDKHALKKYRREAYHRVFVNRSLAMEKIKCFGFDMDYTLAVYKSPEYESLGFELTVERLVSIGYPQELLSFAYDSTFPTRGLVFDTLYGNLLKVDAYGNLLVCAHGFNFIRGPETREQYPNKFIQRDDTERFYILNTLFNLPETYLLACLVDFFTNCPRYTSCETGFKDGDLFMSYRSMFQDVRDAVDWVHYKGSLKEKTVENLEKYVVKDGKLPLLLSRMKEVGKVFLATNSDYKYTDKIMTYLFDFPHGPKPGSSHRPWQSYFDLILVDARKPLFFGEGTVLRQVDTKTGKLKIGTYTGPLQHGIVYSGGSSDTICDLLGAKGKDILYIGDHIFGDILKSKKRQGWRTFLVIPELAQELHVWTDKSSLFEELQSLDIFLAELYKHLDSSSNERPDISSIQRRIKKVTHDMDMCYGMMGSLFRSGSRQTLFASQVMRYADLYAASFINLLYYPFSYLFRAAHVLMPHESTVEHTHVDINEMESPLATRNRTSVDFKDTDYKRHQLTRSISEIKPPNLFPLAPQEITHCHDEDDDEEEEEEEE
UniProt Q13952: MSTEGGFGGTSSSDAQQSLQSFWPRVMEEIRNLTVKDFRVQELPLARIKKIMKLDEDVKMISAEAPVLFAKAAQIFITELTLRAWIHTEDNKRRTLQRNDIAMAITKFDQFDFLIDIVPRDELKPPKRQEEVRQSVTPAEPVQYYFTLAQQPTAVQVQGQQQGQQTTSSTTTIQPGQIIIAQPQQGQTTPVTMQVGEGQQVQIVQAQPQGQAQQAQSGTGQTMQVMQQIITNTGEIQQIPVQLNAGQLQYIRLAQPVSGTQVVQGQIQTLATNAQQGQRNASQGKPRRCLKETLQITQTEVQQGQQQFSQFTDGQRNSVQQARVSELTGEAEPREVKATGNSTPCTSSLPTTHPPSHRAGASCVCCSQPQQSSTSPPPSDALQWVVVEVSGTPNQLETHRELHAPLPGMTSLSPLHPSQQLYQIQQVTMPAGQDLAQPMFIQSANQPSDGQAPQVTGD
UniProt Q8NDH3: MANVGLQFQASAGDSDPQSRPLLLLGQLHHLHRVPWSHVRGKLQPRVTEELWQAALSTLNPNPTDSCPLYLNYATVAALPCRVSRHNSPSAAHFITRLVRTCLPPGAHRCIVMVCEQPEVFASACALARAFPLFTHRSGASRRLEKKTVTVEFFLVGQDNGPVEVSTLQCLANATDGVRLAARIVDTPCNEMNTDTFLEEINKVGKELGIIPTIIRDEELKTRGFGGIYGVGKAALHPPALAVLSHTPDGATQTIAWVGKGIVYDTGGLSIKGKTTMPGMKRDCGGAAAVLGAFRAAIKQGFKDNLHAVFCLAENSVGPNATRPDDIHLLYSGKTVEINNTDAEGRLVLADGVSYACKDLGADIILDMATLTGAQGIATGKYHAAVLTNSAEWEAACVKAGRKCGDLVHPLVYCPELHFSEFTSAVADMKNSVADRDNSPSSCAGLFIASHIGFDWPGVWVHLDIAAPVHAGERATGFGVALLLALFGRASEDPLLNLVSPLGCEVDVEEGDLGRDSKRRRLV
UniProt Q9BPZ3: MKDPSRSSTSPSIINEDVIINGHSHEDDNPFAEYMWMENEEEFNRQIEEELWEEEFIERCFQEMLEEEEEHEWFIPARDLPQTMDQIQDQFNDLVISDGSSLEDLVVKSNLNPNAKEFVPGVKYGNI
UniProt O95747, whole entry, looked up: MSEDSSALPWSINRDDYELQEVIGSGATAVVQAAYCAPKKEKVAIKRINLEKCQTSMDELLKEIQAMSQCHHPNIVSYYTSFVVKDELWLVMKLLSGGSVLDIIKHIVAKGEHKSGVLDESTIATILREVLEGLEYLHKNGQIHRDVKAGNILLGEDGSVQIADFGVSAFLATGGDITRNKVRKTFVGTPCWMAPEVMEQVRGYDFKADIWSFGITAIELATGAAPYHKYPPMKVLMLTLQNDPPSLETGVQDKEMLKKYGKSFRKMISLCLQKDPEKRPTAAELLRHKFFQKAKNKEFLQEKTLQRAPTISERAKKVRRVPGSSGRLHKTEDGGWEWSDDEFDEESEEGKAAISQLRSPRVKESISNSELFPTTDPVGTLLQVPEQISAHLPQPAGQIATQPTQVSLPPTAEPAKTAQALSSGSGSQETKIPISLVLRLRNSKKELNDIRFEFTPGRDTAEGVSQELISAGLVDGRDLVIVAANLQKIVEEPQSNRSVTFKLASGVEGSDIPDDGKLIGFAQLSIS
UniProt Q8NFH3: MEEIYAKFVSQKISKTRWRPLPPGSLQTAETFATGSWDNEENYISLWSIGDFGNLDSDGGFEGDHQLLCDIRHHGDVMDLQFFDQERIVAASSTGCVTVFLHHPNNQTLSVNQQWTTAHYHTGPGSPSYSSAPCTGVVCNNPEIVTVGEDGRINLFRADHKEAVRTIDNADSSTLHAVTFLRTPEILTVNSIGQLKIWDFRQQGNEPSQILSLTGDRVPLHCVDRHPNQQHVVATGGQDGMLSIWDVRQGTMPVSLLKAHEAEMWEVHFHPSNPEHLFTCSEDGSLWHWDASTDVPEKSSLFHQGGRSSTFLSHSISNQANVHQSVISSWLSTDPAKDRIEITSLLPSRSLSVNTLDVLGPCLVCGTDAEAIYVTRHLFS
UniProt Q9GZT8: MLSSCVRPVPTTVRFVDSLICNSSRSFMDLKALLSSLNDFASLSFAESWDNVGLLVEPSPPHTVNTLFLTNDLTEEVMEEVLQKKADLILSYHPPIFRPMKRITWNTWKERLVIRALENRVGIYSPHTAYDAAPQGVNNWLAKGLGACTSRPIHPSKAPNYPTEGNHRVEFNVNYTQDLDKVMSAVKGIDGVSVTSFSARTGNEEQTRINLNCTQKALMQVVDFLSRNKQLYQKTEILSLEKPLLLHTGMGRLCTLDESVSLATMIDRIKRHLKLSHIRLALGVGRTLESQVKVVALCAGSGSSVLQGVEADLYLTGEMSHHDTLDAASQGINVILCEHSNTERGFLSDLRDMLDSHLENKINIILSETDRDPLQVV
UniProt P22392, whole entry: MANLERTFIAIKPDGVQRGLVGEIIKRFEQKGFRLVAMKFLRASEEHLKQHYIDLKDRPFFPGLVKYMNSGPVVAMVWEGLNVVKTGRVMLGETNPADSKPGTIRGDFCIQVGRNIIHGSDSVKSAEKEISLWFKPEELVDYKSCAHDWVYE
UniProt Q9Y618, whole entry: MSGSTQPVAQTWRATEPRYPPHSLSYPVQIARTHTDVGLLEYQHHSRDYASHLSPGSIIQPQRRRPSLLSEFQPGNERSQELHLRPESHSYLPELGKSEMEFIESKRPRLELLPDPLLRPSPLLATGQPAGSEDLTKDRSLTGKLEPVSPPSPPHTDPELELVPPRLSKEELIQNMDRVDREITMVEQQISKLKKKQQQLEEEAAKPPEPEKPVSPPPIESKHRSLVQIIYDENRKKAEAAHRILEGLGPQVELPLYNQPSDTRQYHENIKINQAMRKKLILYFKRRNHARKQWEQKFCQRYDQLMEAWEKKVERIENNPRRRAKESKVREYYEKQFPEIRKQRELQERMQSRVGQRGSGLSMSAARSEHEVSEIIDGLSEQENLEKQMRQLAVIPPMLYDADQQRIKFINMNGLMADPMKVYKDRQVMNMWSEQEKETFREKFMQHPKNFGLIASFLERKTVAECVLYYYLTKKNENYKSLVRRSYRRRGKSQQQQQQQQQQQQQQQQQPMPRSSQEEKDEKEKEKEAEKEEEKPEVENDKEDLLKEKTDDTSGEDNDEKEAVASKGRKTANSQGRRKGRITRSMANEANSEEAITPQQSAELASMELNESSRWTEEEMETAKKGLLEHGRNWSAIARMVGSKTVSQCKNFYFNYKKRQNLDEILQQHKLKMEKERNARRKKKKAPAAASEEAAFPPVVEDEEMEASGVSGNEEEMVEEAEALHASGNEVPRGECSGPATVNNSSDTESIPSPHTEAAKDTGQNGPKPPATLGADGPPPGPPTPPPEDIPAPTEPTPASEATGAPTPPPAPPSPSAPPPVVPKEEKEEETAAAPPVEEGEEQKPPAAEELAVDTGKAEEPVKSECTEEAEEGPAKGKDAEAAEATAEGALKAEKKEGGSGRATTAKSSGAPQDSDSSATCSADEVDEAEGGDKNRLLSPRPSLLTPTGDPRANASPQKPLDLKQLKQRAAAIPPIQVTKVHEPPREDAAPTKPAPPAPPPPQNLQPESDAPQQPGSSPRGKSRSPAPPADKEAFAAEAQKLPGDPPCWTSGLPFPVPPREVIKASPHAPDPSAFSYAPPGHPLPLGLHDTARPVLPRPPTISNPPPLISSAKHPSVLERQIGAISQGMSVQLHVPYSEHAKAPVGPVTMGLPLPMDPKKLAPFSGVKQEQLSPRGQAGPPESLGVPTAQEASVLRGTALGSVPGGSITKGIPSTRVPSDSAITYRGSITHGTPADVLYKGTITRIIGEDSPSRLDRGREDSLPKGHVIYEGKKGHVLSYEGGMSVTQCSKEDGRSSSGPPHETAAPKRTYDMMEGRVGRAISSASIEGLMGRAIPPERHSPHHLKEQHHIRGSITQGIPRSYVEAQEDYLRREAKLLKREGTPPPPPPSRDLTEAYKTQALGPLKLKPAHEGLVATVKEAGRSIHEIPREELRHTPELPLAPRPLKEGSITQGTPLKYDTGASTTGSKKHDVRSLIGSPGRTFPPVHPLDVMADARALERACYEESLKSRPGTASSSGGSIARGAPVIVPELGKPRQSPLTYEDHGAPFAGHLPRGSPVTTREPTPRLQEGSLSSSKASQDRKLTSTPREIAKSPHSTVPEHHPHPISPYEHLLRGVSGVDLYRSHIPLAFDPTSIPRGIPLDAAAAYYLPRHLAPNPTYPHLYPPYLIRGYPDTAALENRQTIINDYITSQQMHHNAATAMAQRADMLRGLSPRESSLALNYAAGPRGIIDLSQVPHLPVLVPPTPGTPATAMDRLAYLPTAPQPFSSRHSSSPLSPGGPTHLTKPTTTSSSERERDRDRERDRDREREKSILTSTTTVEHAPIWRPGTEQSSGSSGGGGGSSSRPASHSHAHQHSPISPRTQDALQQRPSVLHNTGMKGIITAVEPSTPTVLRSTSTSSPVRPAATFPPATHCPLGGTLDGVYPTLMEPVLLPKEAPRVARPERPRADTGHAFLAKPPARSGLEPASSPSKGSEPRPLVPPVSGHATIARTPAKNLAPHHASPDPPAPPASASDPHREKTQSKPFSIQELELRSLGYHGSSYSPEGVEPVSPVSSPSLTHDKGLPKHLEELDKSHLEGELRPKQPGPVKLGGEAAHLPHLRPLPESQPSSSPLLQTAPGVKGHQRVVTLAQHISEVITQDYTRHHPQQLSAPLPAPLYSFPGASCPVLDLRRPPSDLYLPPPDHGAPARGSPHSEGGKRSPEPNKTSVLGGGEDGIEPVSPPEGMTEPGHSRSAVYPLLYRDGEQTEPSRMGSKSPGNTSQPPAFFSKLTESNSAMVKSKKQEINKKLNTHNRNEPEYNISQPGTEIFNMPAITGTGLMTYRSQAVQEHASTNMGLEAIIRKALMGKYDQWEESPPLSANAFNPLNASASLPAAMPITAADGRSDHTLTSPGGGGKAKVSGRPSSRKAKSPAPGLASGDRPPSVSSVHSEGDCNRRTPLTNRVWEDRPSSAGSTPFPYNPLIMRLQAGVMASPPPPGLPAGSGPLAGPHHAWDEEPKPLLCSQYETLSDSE

Compound in the assay: Nc1nc2c(ncn2[C@@H]2O[C@H](COP(=O)(O)OP(=O)(O)OP(=O)(O)O)[C@@H](O)[C@H]2O)c(=O)[nH]1
The assay can be described thus: dose-dependent thermal stabilisation call (2D-TPP, DLPTP, 10% FDR) (binary (1 = stabilised)); higher = stabilised by the compound. The following applies: system: Jurkat gel-filtered lysate; concentration range 1-500 µM.
As to PA2G4 (UniProt Q9UQ80), the “dose-dependent thermal stabilisation call” value was inactive: 0.

On to NFKB2 (UniProt Q00653), for which the “dose-dependent thermal stabilisation call” value is inactive: 0.

As for NUP54 (UniProt Q7Z3B4), the “dose-dependent thermal stabilisation call” value is inactive: 0.

With NADK (UniProt O95544), the “dose-dependent thermal stabilisation call” value was inactive: 0.

Take NIT1 (UniProt Q86X76): the “dose-dependent thermal stabilisation call” value was inactive: 0.

As for NADSYN1 (UniProt Q6IA69), the “dose-dependent thermal stabilisation call” value is inactive: 0.

Regarding NF2 (UniProt P35240), the “dose-dependent thermal stabilisation call” value was inactive: 0.

Regarding NCOA1 (UniProt Q15788), the “dose-dependent thermal stabilisation call” value was inactive: 0.

For ERCC6 (UniProt P0DP91), the “dose-dependent thermal stabilisation call” value was inactive: 0.

OGFR (UniProt Q9NZT2): the “dose-dependent thermal stabilisation call” value was inactive: 0.

Consider NT5C2 (UniProt P49902), for which the “dose-dependent thermal stabilisation call” value is inactive: 0.

Turning to NFYC (UniProt Q13952), the “dose-dependent thermal stabilisation call” value was inactive: 0.

For the target NPEPL1 (UniProt Q8NDH3), the “dose-dependent thermal stabilisation call” value was inactive: 0.

As to NFYB (UniProt P25208), the “dose-dependent thermal stabilisation call” value is inactive: 0.

On to NFIC (UniProt P08651), for which the “dose-dependent thermal stabilisation call” value is inactive: 0.

Regarding PAIP2 (UniProt Q9BPZ3), the “dose-dependent thermal stabilisation call” value was inactive: 0.

With NRBF2 (UniProt Q96F24), the “dose-dependent thermal stabilisation call” value is inactive: 0.

Consider NHLRC2 (UniProt Q8NBF2), for which the “dose-dependent thermal stabilisation call” value was active: 1.

Take PAFAH1B2 (UniProt P68402): the “dose-dependent thermal stabilisation call” value is inactive: 0.

As for OXSR1 (UniProt O95747), the “dose-dependent thermal stabilisation call” value is active: 1.

Regarding NUDT14 (UniProt O95848), the “dose-dependent thermal stabilisation call” value is inactive: 0.

NUP43 (UniProt Q8NFH3): the “dose-dependent thermal stabilisation call” value is inactive: 0.

For the target NME7 (UniProt Q9Y5B8), the “dose-dependent thermal stabilisation call” value was inactive: 0.

Consider NIF3L1 (UniProt Q9GZT8), for which the “dose-dependent thermal stabilisation call” value was inactive: 0.

As to NME2 (UniProt P22392), the “dose-dependent thermal stabilisation call” value was inactive: 0.

Turning to NUP50 (UniProt Q9UKX7), the “dose-dependent thermal stabilisation call” value is inactive: 0.

For NCOA7 (UniProt Q8NI08), the “dose-dependent thermal stabilisation call” value was inactive: 0.

As to NCOR2 (UniProt Q9Y618), the “dose-dependent thermal stabilisation call” value was inactive: 0.

Turning to NUCKS1 (UniProt Q9H1E3), the “dose-dependent thermal stabilisation call” value was inactive: 0.

In the case of NUP62 (UniProt P37198), the “dose-dependent thermal stabilisation call” value is inactive: 0.

In the case of PARK7 (UniProt Q99497), the “dose-dependent thermal stabilisation call” value was inactive: 0.

In the case of NDUFV2 (UniProt P19404), the “dose-dependent thermal stabilisation call” value is inactive: 0.

On to NAA10 (UniProt P41227), for which the “dose-dependent thermal stabilisation call” value is inactive: 0.

Regarding NAE1 (UniProt Q13564), the “dose-dependent thermal stabilisation call” value is inactive: 0.

With PAF1 (UniProt Q8N7H5), the “dose-dependent thermal stabilisation call” value is inactive: 0.

For the target NCAPH (UniProt Q15003), the “dose-dependent thermal stabilisation call” value is inactive: 0.

The values are drawn from the supplement of paper PMC7666118.
